The data set can be described thus: peptide synthesis. The conditions noted are these: late stage modification step.

Here are results for 1 substance from patent US10294275B2 (Yale University, priority 2012, dated 2019).

tribromovancomycin gave a step yield of 35%.
